One assay concerns the target ECFP-Bax (mouse) (UniProt Q07813). Briefly: FRET or BRET; flow cytometry-based FRET in living NIH3T3/puro, NIH3T3/vMAP and NIH3T3/vMAPΔ20 cells 36 h after transfection with pEYFP and pECFP fusions.
For assay [1], the target named is T1, HA-Bad (in NIH3T3) (mouse) (UniProt Q61337).
T1 sequence: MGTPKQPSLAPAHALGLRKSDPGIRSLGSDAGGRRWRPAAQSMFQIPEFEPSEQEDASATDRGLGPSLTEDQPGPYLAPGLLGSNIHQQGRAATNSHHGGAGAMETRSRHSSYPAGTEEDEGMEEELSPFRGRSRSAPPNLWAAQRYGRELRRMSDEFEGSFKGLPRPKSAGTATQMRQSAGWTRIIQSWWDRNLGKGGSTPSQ
Description: co-IP; NIH3T3/puro, NIH3T3/vMAP, NIH3T3/vMAPΔ20 or NIH3T3/vMAP L/A stable cells transfected with an HA-tagged and a Flag-tagged protein; whole cell lysates, IP anti-HA, immunoblot anti-Flag; anti-Myc IP as negative control. Background: A western blot detects proteins with antibodies after separation by electrophoresis.

Sequences of proteins named here, by UniProt entry; tags and fusion partners are left off.
UniProt Q07813: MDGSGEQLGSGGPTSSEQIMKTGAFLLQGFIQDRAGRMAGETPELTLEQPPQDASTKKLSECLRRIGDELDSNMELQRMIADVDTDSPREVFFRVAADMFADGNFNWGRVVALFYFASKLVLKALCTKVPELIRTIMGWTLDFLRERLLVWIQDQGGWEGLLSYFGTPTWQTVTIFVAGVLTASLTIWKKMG

Assay [2] addresses HA-Bax (in NIH3T3) (mouse) (UniProt Q07813). The description is as above.

Results are given in words; binding and its absence hold for the method and conditions named. Binding seen in cells or lysates may run through a third protein. Some binding calls cover weakened binding; strength is not graded here. For some of these results: Tags and fused reporters may be left off the sequences shown.

Consider “EYFP-Bcl-2 (from UniProt P10415-1 1-239)”, for which, in the assay with ECFP-Bax (mouse), the binding result is “binds”.

“Flag-Bcl-xL (from UniProt Q07817-1 1-233)”: the binding entry in assay [1] was “binds”. Take “Flag-Bcl-2 (from UniProt P10415-1 1-239)”: the binding result in assay [1] and in assay [2] was “binds” in each case.

The values above are taken from PMC2134948.
